The list shows a part of the results.

The assay addresses T1, OsSMF1 (Oryza sativa, UniProt Q6ZLB0 1-436).
T1 sequence: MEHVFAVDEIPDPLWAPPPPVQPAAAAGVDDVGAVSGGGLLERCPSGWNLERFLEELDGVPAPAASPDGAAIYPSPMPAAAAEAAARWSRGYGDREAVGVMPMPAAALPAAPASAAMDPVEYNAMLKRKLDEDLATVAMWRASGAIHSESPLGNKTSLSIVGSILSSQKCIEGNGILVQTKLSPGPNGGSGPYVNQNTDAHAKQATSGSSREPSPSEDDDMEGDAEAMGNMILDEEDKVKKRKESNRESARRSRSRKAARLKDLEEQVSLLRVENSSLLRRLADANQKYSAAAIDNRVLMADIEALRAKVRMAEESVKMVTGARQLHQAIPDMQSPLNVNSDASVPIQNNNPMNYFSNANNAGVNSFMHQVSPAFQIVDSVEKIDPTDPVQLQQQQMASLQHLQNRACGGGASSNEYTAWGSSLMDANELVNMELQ
The experiment in a line: protein-binding microarray (RPBM); PBS, 2% BSA, 51.3 ng/ul salmon testes DNA, 50 uM zinc acetate, 200 nM TF, 25 C, 1 h; high values mean tight binding. The following applies: protein: recombinant; tags: N-terminal polyhistidine and DsRed monomer fusion (pET32a); chain copies: 2; label: CyDye5-dUTP incorporated in the synthesized complementary strand; 3' TTTTT single-stranded linker to array surface; dsDNA, one strand shown. In short, it runs like this:
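Per-feature fluorescence intensity (arbitrary units), read on an Axon 4000B scanner, is the binding signal. Transcription factors carrying an N-terminal polyhistidine tag and DsRed fusion were expressed in E. coli BL21-CodonPlus and purified on Ni–NTA. A custom Agilent array, made double-stranded by primer extension with Cy5-dUTP and blocked with 2% BSA, was incubated with 200 nM protein in PBS, 2% BSA, salmon testes DNA and 50 µM zinc acetate at 25 °C for 1 h and then washed.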
With “TGGTGGTGGTGGCCATGCACACGTCGACCAAGCTCCGGATCGGAGTCACCTAGTGCAG”, the binding signal was 5270 fluorescence intensity (a.u.). For “TTGCGATCAAGGCATCATCATCATCATCATCATCACGTGACGGAGTCACCTAGTGCAG”, the binding signal was 3210 fluorescence intensity (a.u.). As for “ACAACAGCTCGATCCATCCACGCGCGCGTGACGGCTCGGCCGGAGTCACCTAGTGCAG”, the figure is 4690 fluorescence intensity (a.u.); as for “TGTGTGTGAGCAGCCGCAGTCCTTACGTTTAGCCCAGTCACGGAGTCACCTAGTGCAG”, 3690 fluorescence intensity (a.u.). Then “GGAGACACCTGTGACGCTGCCGCGTGGGCCCACACGGACGCGGAGTCACCTAGTGCAG”, with 4740 fluorescence intensity (a.u.); and “AGCGATTTATAATTGTACTATTGCAAATGTGGCAAAATGCCGGAGTCACCTAGTGCAG”, with 3340 fluorescence intensity (a.u.). Consider “AAATTAACCGTATATGCACATTGTTGTAAATTGCAGCTTGCGGAGTCACCTAGTGCAG”, for which the binding signal was 3740 fluorescence intensity (a.u.). Take “ACTTATTCTCCCTCAAAATCGTCATCTTCTCTGCCCTTTGCGGAGTCACCTAGTGCAG”: the binding signal is 3800 fluorescence intensity (a.u.).

On to “TCATCAGATTGTATTGTTACATTTGACTGCTTGCAGCTAGCGGAGTCACCTAGTGCAG”, for which the binding signal was 17300 fluorescence intensity (a.u.). Then “TACACCACACGAGTATACGACGTCAGACACGACCAAACCCCGGAGTCACCTAGTGCAG”, with 4160 fluorescence intensity (a.u.); and “TTCTAAACGGTTAGTTTTCTTTAAGTTCCTTTTCAAGTTCCGGAGTCACCTAGTGCAG”, with 3360 fluorescence intensity (a.u.); and “GTCACCAGCCACGTGACACGGCGATGAATGGGATTTTGGACGGAGTCACCTAGTGCAG”, with 5470 fluorescence intensity (a.u.). As to “ACATTTATTTCCCATATGAAATTTGCTCAAAATTAACTTGCGGAGTCACCTAGTGCAG”, the binding signal is 21700 fluorescence intensity (a.u.). As for “CTTCAGGGTCGTCGCCGCTTCACTACCTCATCAGCATCCACGGAGTCACCTAGTGCAG”, the figure is 3720 fluorescence intensity (a.u.).

Consider “AGTAAGGAGAGCTGCAAGTTTCTTACACAATATGTTGTCTCGGAGTCACCTAGTGCAG”, for which the binding signal is 18200 fluorescence intensity (a.u.).

Consider “GGACACTGACATGTGGGGCTCACCGTATGCCACGTCAGCGCGGAGTCACCTAGTGCAG”, for which the binding signal was 34300 fluorescence intensity (a.u.). Regarding “AGACGAAGGCCCTGATGTCAGAAAATGTGACATGGACAACCGGAGTCACCTAGTGCAG”, the binding signal is 4290 fluorescence intensity (a.u.). With “GAGGGAGAGGGGAGAGGGAATGACATGTGGAACACACCATCGGAGTCACCTAGTGCAG”, the binding signal was 3890 fluorescence intensity (a.u.). Then “CGTCGCCGCAAAACCCCACGTCCCCACCTCGACTCGCCTCCGGAGTCACCTAGTGCAG”, with 7120 fluorescence intensity (a.u.); and “TATGACTAATCATGGACTAATTAGGCTCAAAAGATTCGTCCGGAGTCACCTAGTGCAG”, with 33200 fluorescence intensity (a.u.); and “CCAGTTTTGTCCACGTGGCAGCTGACTCACGGTGGGACCCCGGAGTCACCTAGTGCAG”, with 29200 fluorescence intensity (a.u.). Consider “TACAAAGAGCGTGTGCTTCAGGAATGCGTGCCACACTCTTCGGAGTCACCTAGTGCAG”, for which the binding signal is 3510 fluorescence intensity (a.u.). In the case of “TGAATTTATGTGGTTATATTATATAGCCATGTTAAATTAACGGAGTCACCTAGTGCAG”, the binding signal is 5950 fluorescence intensity (a.u.). As for “GTAATGACGCGGTTACCGGTGGTAAGGGAAACCCTGCTCCCGGAGTCACCTAGTGCAG”, the figure is 6560 fluorescence intensity (a.u.). Turning to “ATGAGTTACCTATTATCCTCCACCGTGGCAGGCCTACTCACGGAGTCACCTAGTGCAG”, the binding signal is 4750 fluorescence intensity (a.u.). As for “GATGGCTTTTATTGTCAAGAGATTCAAGCACTTTCTTCGCCGGAGTCACCTAGTGCAG”, the binding signal is 13400 fluorescence intensity (a.u.). For “CCACCAAACCCTCGAAAATCAAGAGCCCGTAAAACAGAAGCGGAGTCACCTAGTGCAG”, the binding signal is 3430 fluorescence intensity (a.u.).

Take “ACAGACCTTGTGACTTCATCACACAAACGGCCAAGCTCCCCGGAGTCACCTAGTGCAG”: the binding signal is 3860 fluorescence intensity (a.u.).

Turning to “TTGCACGACGCCACGTAACAGATTCCTACGAACCTAAGCTCGGAGTCACCTAGTGCAG”, the binding signal is 4520 fluorescence intensity (a.u.). Regarding “TTGTCCCTATAATAATATGTCACTCAAAATTGCTAATAAACGGAGTCACCTAGTGCAG”, the binding signal was 3400 fluorescence intensity (a.u.). For “TCCGGCAGCCGCCGCCGGACACCATGGCTGACTCTCCGAGCGGAGTCACCTAGTGCAG”, the binding signal was 3270 fluorescence intensity (a.u.). Take “GCGGGATCTCGCCACACACGTAATCCGACGCCCGCGCGACCGGAGTCACCTAGTGCAG”: the binding signal is 4070 fluorescence intensity (a.u.). As for “CATCCAGACACTGTAGCTGATTCTGTTTAGTCAGCGTAGCCGGAGTCACCTAGTGCAG”, the figure is 3480 fluorescence intensity (a.u.); as for “TTCATAAAACTCCACCTGATCCGAATTACTCTACCAATAACGGAGTCACCTAGTGCAG”, 4490 fluorescence intensity (a.u.). Consider “GATGAGATGAGGGAGATACCATCAGACTTGCACCAGATGGCGGAGTCACCTAGTGCAG”, for which the binding signal is 3660 fluorescence intensity (a.u.).

Turning to “AACTTTTAGGGCCAGTTCGCTTGCGAGTTTGACAATGACACGGAGTCACCTAGTGCAG”, the binding signal was 3210 fluorescence intensity (a.u.). Then “AGAAAAGGATGTGTCACTGACATGTAGGGCCCATCATTTTCGGAGTCACCTAGTGCAG”, with 6910 fluorescence intensity (a.u.); and “ATCGGCAGCTGCCACGTGACCCGCTTCCGTCTCAAAAGCCCGGAGTCACCTAGTGCAG”, with 6320 fluorescence intensity (a.u.); and “TGTGATTTGGTACATGCATGTTCTACTAAGTCTGTTTCTACGGAGTCACCTAGTGCAG”, with 3520 fluorescence intensity (a.u.). Then “CTCTGATCGTTTGAGCTTGGGCTATGTGGAAACATGAACACGGAGTCACCTAGTGCAG”, with 3860 fluorescence intensity (a.u.); and “CGCGAGCAGGTTGACTTGCAGCAGGGCGTGGACTGATCAACGGAGTCACCTAGTGCAG”, with 32700 fluorescence intensity (a.u.); and “GGCCTGCTGCTGCTTTGGGTGGGCTGCCTCGTCACTAATCCGGAGTCACCTAGTGCAG”, with 8340 fluorescence intensity (a.u.).

The values above are taken from publication PMC7819943, “Rice protein-binding microarrays: a tool to detect cis-acting elements near promoter regions in rice”.
